Experimental data reported in patent US7572600B2, “Enzymatic activities in chemokine-mediated inflammation” (Chemocentryx, Inc., priority 2004, dated 2009).
Where two headings read alike, the source gives them in different places. For some assays here: At least one compound was matched to its structure with a doubt left. Some of these results come from one statement about several compounds together.

Key:
[1] = target: T1, FPRL1 (Homo sapiens, UniProt P25090); parameters: key to the marks not given beside the values; details: antagonists; grades − to ++++, key not given; cited from earlier work
T1 sequence (P25090 1-351): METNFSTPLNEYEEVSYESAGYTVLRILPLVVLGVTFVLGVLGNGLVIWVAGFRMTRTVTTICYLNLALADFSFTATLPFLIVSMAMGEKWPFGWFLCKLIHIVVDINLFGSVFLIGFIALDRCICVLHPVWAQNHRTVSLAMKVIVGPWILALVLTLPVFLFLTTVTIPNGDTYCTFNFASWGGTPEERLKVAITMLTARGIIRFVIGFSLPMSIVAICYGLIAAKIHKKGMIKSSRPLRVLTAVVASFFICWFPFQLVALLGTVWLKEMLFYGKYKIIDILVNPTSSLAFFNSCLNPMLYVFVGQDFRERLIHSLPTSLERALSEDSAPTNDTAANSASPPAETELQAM

[2] = target: T2, FPR (Homo sapiens, UniProt P21462); details: grades − to ++++, key not given, cited from earlier work
T2 sequence (P21462 1-350): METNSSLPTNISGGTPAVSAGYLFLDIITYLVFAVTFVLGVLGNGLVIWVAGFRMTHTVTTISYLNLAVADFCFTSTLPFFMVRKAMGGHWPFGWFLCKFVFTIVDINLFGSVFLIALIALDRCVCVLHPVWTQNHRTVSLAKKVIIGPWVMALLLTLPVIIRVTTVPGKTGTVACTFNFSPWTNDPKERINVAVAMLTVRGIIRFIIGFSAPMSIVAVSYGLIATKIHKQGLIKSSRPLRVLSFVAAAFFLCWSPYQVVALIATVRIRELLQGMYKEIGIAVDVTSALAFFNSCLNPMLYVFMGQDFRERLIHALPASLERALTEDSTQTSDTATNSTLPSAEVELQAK

[3] = tested on: THP-1 cells; test: THP-1 chemotaxis assay; format: cell-based, human; details: after digestion with either RA fluid or with chymase
Protocol: Chemotaxis assay. L1.2-CCR1 transfectants, THP-1 cells, human monocytes and human neutrophils were collected by centrifugation and resuspended in HBSS containing 0.1% BSA. Chemotaxis assays were performed in 96-well ChemoTx® microplates (Neuroprobe, Rockville, Md.) as follows. Chemokines were added to the lower wells (final volume 29 μL), and 20 μL of cell suspension (5×10^6 cells/mL) was added to the polycarbonate filter (3 μm pore size for neutrophils, 5 μm for other 3 cell types). After incubation at 37° C. in the presence of 5% CO2 for 1 hr (neutrophils), 90 min (monocytes) or 2 h (THP-1 and L1.2-CCR1), cells were removed from the upper surface of the filter by scraping. Cells that migrated into the lower chamber were quantified by using the CyQuant cell proliferation assay kit (Molecular Probes, Eugene, Oreg.) and analyzed with a Tecan (Durham, N.C.) fluorimeter (excitation at 480 nm, emission at 530 nm). Data were analyzed and plotted in arbitrary units of fluorescence using Prism (GraphPad Software, San Diego, Calif.).

For `C[C@H](CCC(=O)O)[C@H]1CC[C@H]2[C@@H]3CC[C@@H]4C[C@H](O)CC[C@]4(C)[C@H]3C[C@H](O)[C@]12C` [Deoxycholoc acid (DCA), Deoxycholoc acid], the FPRL1 [1] is listed as “+++” and the FPR ([2]; antagonists) is listed as “+++”.

In the case of `CCCCC[C@H](O)/C=C/C=C\C=C\C=C\[C@@H](O)[C@@H](O)CCCC(=O)O` [LXA4, Lipoxin A4], the FPR ([2]; agonists) is listed as “−”.

In the case of “CCL5/RANTES: traditional CCR1 ligand chemokine”, the “fold less potent after digestion” value [3] is reported as “at least 10 fold”.

B1: CCL3/MIP-1α: traditional CCR1 ligand chemokine; unlabelled homologous competitor in binding (protein)
chain: ADTPTACCFSYTSRQIPQNFIADYFETSSQCSKPGVIFLTKRSRQVCADPSEEWVQKYVSDLELSA
For B1, the “fold less potent after digestion” value [3] was “at least 10 fold”.
